In article doi:10.1101/2021.09.03.458272 one finds binding data, which are given here for two molecules.

No constants are given. Whether binding was seen depends on the method and setting. Binding seen in cells or lysates may run through a third protein. Some results given as binding are weak or reduced against the parent protein; the word gives no strength. Where a sequence is shown, tags or fusion partners need not be part of it.

The target of experiment [1] is T1, Flag-tagged full-length human CLEC16A (human) (UniProt Q2KHT3).
T1 sequence: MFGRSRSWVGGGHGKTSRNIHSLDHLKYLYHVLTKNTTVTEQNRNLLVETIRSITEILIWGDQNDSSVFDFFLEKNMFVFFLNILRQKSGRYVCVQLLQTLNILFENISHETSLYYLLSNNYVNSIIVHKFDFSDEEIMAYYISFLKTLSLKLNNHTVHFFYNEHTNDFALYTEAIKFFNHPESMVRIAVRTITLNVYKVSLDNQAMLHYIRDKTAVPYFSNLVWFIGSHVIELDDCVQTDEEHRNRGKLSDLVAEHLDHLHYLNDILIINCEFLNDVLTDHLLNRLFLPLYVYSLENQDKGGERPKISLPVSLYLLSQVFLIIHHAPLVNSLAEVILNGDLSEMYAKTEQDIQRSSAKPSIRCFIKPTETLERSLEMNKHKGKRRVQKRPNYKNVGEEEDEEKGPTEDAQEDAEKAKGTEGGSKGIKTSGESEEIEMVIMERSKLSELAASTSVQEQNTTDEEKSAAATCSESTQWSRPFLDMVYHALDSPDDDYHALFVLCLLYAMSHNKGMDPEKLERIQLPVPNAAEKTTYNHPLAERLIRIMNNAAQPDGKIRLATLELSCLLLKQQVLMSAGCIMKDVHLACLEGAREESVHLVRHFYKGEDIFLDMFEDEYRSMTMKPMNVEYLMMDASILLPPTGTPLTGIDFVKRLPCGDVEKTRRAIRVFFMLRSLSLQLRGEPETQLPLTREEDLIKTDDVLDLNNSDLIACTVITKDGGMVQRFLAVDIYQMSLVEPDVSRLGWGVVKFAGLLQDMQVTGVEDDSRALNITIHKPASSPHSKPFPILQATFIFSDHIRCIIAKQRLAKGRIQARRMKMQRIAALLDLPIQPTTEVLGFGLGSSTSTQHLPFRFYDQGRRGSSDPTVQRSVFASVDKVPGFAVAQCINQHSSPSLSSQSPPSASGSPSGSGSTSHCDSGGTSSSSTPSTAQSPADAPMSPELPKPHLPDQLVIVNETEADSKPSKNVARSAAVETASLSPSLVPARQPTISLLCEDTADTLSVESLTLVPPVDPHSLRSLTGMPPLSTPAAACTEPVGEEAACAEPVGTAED
The experiment is described as follows: co-IP.

Experiment [2] deals with T2, endogenous RNF41/Nrdp1 (human (endogenous in HEK293T)) (UniProt Q9H4P4).
T2 sequence: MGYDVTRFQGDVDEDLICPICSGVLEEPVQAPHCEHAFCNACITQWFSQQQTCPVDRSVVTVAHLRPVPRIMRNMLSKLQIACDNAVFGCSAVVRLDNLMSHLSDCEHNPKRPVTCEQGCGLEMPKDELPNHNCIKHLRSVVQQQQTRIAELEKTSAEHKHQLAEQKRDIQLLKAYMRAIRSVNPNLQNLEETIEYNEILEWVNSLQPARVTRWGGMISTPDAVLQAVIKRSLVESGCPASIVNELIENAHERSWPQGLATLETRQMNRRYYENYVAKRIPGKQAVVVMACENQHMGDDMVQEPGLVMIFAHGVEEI
The experiment is described as follows: co-IP.

B1: HA-Nrdp1 (pcDNA3.1 3x-HA-Nrdp1) (protein, UniProt Q9H4P4 1-317)
chain: T2 sequence
B1: the binding entry in experiment [1] is “binds”.

B2: GFP-USP8 (protein, UniProt P40818 1-1118)
chain: MPAVASVPKELYLSSSLKDLNKKTEVKPEKISTKSYVHSALKIFKTAEECRLDRDEERAYVLYMKYVTVYNLIKKRPDFKQQQDYFHSILGPGNIKKAVEEAERLSESLKLRYEEAEVRKKLEEKDRQEEAQRLQQKRQETGREDGGTLAKGSLENVLDSKDKTQKSNGEKNEKCETKEKGAITAKELYTMMTDKNISLIIMDARRMQDYQDSCILHSLSVPEEAISPGVTASWIEAHLPDDSKDTWKKRGNVEYVVLLDWFSSAKDLQIGTTLRSLKDALFKWESKTVLRNEPLVLEGGYENWLLCYPQYTTNAKVTPPPRRQNEEVSISLDFTYPSLEESIPSKPAAQTPPASIEVDENIELISGQNERMGPLNISTPVEPVAASKSDVSPIIQPVPSIKNVPQIDRTKKPAVKLPEEHRIKSESTNHEQQSPQSGKVIPDRSTKPVVFSPTLMLTDEEKARIHAETALLMEKNKQEKELRERQQEEQKEKLRKEEQEQKAKKKQEAEENEITEKQQKAKEEMEKKESEQAKKEDKETSAKRGKEITGVKRQSKSEHETSDAKKSVEDRGKRCPTPEIQKKSTGDVPHTSVTGDSGSGKPFKIKGQPESGILRTGTFREDTDDTERNKAQREPLTRARSEEMGRIVPGLPSGWAKFLDPITGTFRYYHSPTNTVHMYPPEMAPSSAPPSTPPTHKAKPQIPAERDREPSKLKRSYSSPDITQAIQEEEKRKPTVTPTVNRENKPTCYPKAEISRLSASQIRNLNPVFGGSGPALTGLRNLGNTCYMNSILQCLCNAPHLADYFNRNCYQDDINRSNLLGHKGEVAEEFGIIMKALWTGQYRYISPKDFKITIGKINDQFAGYSQQDSQELLLFLMDGLHEDLNKADNRKRYKEENNDHLDDFKAAEHAWQKHKQLNESIIVALFQGQFKSTVQCLTCHKKSRTFEAFMYLSLPLASTSKCTLQDCLRLFSKEEKLTDNNRFYCSHCRARRDSLKKIEIWKLPPVLLVHLKRFSYDGRWKQKLQTSVDFPLENLDLSQYVIGPKNNLKKYNLFSVSNHYGGLDGGHYTAYCKNAARQRWFKFDDHEVSDISVSSVKSSAAYILFYTSLGPRVTDVAT
Take B2: the binding entry in experiment [2] is listed as “binds”.
